Measurements taken from publication PMC11701132, “Tau is a receptor with low affinity for glucocorticoids and is required for glucocorticoid-induced bone loss” (Cell Research, 2025).
These are yes or no findings as the source states them, for the method shown. Binding seen in cells or lysates may run through a third protein. A result given as binding can be weak or reduced; the word gives no strength.

By UniProt entry, the sequences of proteins in these tests, tags left out. Where a name states a change or a piece, a line headed by the entry shows the natural chain unless it says otherwise.
UniProt P10637: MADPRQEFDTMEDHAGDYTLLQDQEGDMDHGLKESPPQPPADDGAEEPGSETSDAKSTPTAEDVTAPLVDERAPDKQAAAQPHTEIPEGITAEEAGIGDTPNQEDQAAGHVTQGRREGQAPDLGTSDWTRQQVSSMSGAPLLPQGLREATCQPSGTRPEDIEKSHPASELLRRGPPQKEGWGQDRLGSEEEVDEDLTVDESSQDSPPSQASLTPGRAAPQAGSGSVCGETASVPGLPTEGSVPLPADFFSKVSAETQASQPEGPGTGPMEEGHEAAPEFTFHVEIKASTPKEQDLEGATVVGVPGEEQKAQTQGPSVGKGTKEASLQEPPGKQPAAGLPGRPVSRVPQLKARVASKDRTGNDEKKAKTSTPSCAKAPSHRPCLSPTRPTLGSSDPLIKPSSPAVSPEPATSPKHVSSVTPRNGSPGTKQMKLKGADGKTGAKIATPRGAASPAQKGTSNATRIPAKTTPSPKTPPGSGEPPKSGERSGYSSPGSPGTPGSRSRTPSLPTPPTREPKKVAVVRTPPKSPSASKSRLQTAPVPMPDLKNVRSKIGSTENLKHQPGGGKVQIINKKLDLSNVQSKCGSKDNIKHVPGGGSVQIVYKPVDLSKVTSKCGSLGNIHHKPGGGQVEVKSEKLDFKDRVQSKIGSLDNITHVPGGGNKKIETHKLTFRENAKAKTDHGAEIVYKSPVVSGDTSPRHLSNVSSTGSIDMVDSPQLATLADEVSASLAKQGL
UniProt Q6PCN3: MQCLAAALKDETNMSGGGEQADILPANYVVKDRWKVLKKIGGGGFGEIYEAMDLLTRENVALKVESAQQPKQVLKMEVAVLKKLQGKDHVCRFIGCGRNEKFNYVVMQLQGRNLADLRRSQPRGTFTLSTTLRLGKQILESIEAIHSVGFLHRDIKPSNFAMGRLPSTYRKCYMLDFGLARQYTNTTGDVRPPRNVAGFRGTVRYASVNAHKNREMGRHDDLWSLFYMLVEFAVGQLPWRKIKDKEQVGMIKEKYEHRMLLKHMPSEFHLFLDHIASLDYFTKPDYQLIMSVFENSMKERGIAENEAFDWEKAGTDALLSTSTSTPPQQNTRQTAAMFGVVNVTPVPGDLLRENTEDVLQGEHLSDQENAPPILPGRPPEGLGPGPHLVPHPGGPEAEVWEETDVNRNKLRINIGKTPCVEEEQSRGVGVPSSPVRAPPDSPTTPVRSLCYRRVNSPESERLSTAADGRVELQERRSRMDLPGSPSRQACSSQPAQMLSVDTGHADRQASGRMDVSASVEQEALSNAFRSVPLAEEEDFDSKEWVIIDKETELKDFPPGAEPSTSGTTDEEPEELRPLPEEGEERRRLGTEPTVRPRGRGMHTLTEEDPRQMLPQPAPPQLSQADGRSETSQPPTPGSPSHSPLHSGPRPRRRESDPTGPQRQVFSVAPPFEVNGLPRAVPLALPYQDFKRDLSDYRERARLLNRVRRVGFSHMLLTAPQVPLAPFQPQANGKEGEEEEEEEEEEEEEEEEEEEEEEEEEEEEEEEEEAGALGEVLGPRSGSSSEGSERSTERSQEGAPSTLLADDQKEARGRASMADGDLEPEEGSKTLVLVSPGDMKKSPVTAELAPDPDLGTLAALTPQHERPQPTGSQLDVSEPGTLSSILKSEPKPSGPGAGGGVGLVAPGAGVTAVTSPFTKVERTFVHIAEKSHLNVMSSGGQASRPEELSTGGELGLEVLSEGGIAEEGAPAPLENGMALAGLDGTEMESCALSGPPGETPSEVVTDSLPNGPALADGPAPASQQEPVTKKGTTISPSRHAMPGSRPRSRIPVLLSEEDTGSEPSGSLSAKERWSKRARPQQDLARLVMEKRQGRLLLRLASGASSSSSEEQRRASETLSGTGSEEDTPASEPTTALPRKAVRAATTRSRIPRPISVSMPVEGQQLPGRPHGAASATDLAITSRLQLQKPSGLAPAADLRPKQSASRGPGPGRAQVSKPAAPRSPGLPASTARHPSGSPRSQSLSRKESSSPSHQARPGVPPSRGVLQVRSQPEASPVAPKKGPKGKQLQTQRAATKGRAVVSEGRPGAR

Target: Tau (mouse (endogenous in Raw264.7)) (UniProt P10637)
Assay: co-IP; endogenous proteins; Raw264.7 cells treated with 10 µM dexamethasone for 30 min, lysed in PBS pH 7.4 with 1.5% Triton X-100; anti-Tau antibody (or mouse IgG) on protein A/G agarose (for TTBK1) or crosslinked to magnetic beads (for p105/p50), overnight at 4 °C; immunoblot

## TTBK1 kinase (from UniProt Q6PCN3 1-1308) (enzyme)
  binding: binds
